Measurements: patent publication US20250367182A1, “METHOD FOR INDUCING IN-SITU REGENERATION OF MAMMAL AND USE THEREOF” (INSTITUTE OF ZOOLOGY, CHINESE ACADEMY OF SCIENCES, priority 2022, published 2025)
At least one structure is not confirmed: it was looked up by name or label, or the drawing left a doubt.

Key:
[1] = system: 2 mm diameter mouse ear hole; test: 2 mm ear hole trauma mouse model (ear hole closure); assay type: in vivo, C57BL/6 mice; conditions: 10-20 mg/kg, administered as CHX, measured 21 days after damage, n≥8
[2] = system: protein translation process; conditions: Dexamethasone with CHX
[3] = system: STING-TBK1-IRF3 signaling pathway / ISG genes in mouse primary fibroblasts and macrophages; test: CHX-induced ISG gene expression in primary cells (RNA-seq, Ribo-seq, qPCR, immunofluorescence); assay type: cell-based; conditions: Dexamethasone 10 μM, CHX 1 μg/ml

Compound: O=c1c2ccccc2[se]n1-c1ccccc1 [Ebselen]
- healing of 2 mm ear holes by ferroptosis / autophagy inhibitors [1]: neither inhibitors of ferroptosis nor autophagy could promote the healing of the ear hole like CHX

Compound: C[C@@H]1C[C@H]2[C@@H]3CCC4=CC(=O)C=C[C@]4(C)[C@@]3(F)[C@@H](O)C[C@]2(C)[C@@]1(O)C(=O)CO [Dexamethasone]
- effect on CHX inhibition of overall translation (Puromycin incorporation) [2]: did not affect the inhibition of CHX on overall translation
- expression of ISG genes induced by CHX [3]: significantly inhibited the expression of ISG genes
